Test results from PubChem BioAssay AID340 (DTP/NCI, 2004).
The list shows only some results of the screen, not a fair sample: it gathers some chemical classes. Other doses and runs of a compound may be missing. T/C is the treated group as % of the vehicle group. Some doses have a count of surviving animals in place of a T/C: the source holds a T/C of zero for them, seemingly a mark for toxic or unscored doses. Some survivor counts are full or nearly so, which does not show that the dose was tolerated: survival well below the control is almost never listed, so the zero probably covers shortened survival too. Survivors were counted at the toxicity check, usually on the fifth day, unless a day is given; later deaths do not show. Schedule codes are those of the source, taken here to give the interval after Q, in days (D) or hours (H), and the number of doses after X. Some doses were run more than once; their values stand side by side, smallest first. For survival time, the PubChem record calls one and a half times the control and up active, and a quarter to a half above the control has no call in these data; cut-offs in other NCI protocols can differ. Additions like (4×) stand for listed records that agree. Some T/C values are followed by the survivors on the day toxicity was checked, most often the fifth; where neither a count nor a note follows, no animal had died by that day.

Tested on: CD2F1 mice, ip reticulum cell sarcoma, survival T/C
Experiment: NCI In Vivo Anticancer Drug Screen. Data for tumor model Reticulum Cell Sarcoma (Kelley Mouse) (intraperitoneal) in CD2F1 (CDF1) mice
Details: T/C endpoint: median survival time, schedule: Q01DX010 (ip), vehicle: saline, higher T/C = longer survival
Method: The antitumor activity of compounds was measured in mice bearing transplantable tumors. Survival or tumor size were measured and the results are expressed as the measurement made in the treated group (T) divided by the measurement made in the vehicle treated control group (C). The tumor model used in this assay is Reticulum Cell Sarcoma (Kelley Mouse) (intraperitoneal) in CD2F1 (CDF1) mice

Row | SMILES | T/C (dose: 10.0 mg/kg/injection) | T/C (dose: 14.0 mg/kg/injection) | T/C (dose: 20.0 mg/kg/injection) | T/C (dose: 30.0 mg/kg/injection) | T/C (dose: 1.25 mg/kg/injection) | T/C (dose: 2.5 mg/kg/injection) | T/C (dose: 5.0 mg/kg/injection) | T/C (dose: 8.0 mg/kg/injection) | T/C (dose: 16.0 mg/kg/injection) | T/C (dose: 32.0 mg/kg/injection) | survivor count (dose: 64.0 mg/kg/injection)
1 | CC[C@@H](C)[C@@H]1NC(=O)/C(=C(\C)O)C1=O.c1ccc(CNCCNCc2ccccc2)cc1 | 100 % of control | 106 % of control | 106 % of control | 100 % of control |  |  |  |  |  |  | 
2 | NC1CCCCC1.O=P(O)(N(CCCl)CCCl)N1CC1 | 124 and 156 % of control |  | 118 % of control |  | 100 % of control | 106 % of control (2×) | 109 and 116 % of control |  |  |  | 
3 | CN(N=O)C(=N)N[N+](=O)[O-] |  |  |  |  |  |  |  | 126 and 135 % of control | 105 and 113 % of control | 100 [5 of 6 alive] and 102 % of control | 5 of 6 and 6 of 6
